Counter-ions that a name gives are not always drawn. Many values rest on one well or one pass, so single values are uncertain.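 All cells are established human bladder cancer lines, one derived from a patient-derived xenograft. A luminescent ATP assay measured viability as percent inhibition relative to vehicle across seven dilutions. The paper rates scores above 59 very active, 30–59 active, 21–29 semi-active, 9–20 low active, below 9 inactive.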
Tests used:
Experiment in all cases: drug sensitivity score DSS3 (score 0-100); higher = more sensitive; extreme values may be limits of the assay
Details in all cases: culture: 3D, ultra-low attachment; treatment time: 5 days
5637 = tested on: 5637
BC8149 = tested on: BC8149
J82 = tested on: J82
SCaBER = tested on: SCaBER
SW780 = tested on: SW780
T-24 = tested on: T-24
TCCSUP = tested on: TCCSUP
UM-UC-12 = tested on: UM-UC-12
UM-UC-14 = tested on: UM-UC-14
UM-UC-15 = tested on: UM-UC-15
UM-UC-17 = tested on: UM-UC-17
UM-UC-18 = tested on: UM-UC-18
UM-UC-1 = tested on: UM-UC-1
UM-UC-3 = tested on: UM-UC-3
UM-UC-5 = tested on: UM-UC-5
UM-UC-6 = tested on: UM-UC-6
UM-UC-9 = tested on: UM-UC-9

SMILES | drug sensitivity score DSS3 5637 | drug sensitivity score DSS3 (BC8149) | drug sensitivity score DSS3 (J82) | drug sensitivity score DSS3 (SCaBER) | drug sensitivity score DSS3 (SW780) | drug sensitivity score DSS3 (T-24) | drug sensitivity score DSS3 (TCCSUP) | drug sensitivity score DSS3 (UM-UC-12) | drug sensitivity score DSS3 (UM-UC-14) | drug sensitivity score DSS3 (UM-UC-15) | drug sensitivity score DSS3 (UM-UC-17) | drug sensitivity score DSS3 (UM-UC-18) | drug sensitivity score DSS3 (UM-UC-1) | drug sensitivity score DSS3 (UM-UC-3) | drug sensitivity score DSS3 (UM-UC-5) | drug sensitivity score DSS3 (UM-UC-6) | drug sensitivity score DSS3 (UM-UC-9)
Cc1c(C(=O)Nc2ccc(N3C[C@@H](C)O[C@@H](C)C3)nc2)cccc1-c1ccc(OC(F)(F)F)cc1 [LDE225 (NVP-LDE225,Erismodegib)] (max dose 10000 nM) | 0 | 0 | 0 | 0.101 | 0 | 0 | 0 | 0 | 0 | 0 | 0 | 0 | 0 | 0 | 0 | 0 | 0
Cc1cc2ncc(C(=O)NCC(C)(C)NCC(=O)N3CCC[C@H]3C#N)cn2n1 [Anagliptin] (max dose 10000 nM) | 0 | 0 | 0 | 0 | 0 | 0 | 0 | 0 | 0 | 0 | 0 | 0 | 0 | 0 | 0 | 0 | 0
CCOc1ccn(-c2ccc(F)cc2)c(=O)c1C(=O)Nc1ccc(Oc2ccnc(N)c2Cl)c(F)c1 (max dose 10000 nM) | 8.31 | 7.96 | 0.014 | 0 | 0 | 0 | 11.3 | 0 | 0 | 0 | 2.46 | 0 | 0 | 8.35 | 0.502 | 0.602 | 0
Cc1cc(Nc2cc(N3CCN(C)CC3)nc(Sc3ccc(NC(=O)C4CC4)cc3)n2)n[nH]1 [VX-680 (Tozasertib, MK-0457)] (max dose 10000 nM) | 17.4 | 0.966 | 0 | 0 | 0 | 0 | 28.1 | 6.25 | 6.84 | 0.734 | 0 | 0.589 | 16.5 | 0.569 | 0 | 10.6 | 0
CC1(C)CC(=O)c2c(C(F)(F)F)nn(-c3ccc(C(N)=O)c(N[C@H]4CC[C@H](O)CC4)c3)c2C1 (max dose 10000 nM) | 53.8 | 58.7 | 13.5 | 42.9 | 3.35 | 27.6 | 48.5 | 44.1 | 34.6 | 27.4 | 26.9 | 38.1 | 28.5 | 55.4 | 27.2 | 23.1 | 22.3
CON [Methoxyamine hydrochloride] (max dose 10000 nM) | 11.9 | 8.52 | 0 | 10.2 | 0 | 18.6 | 7.65 | 0 | 3.36 | 9.81 | 5.78 | 7.19 | 7.85 | 6.65 | 8.29 | 4.57 | 5.27
CCNC(=O)[C@H]1O[C@@H](n2cnc3c(N)nc(NCCc4ccc(CCC(=O)O)cc4)nc32)[C@H](O)[C@@H]1O (max dose 10000 nM) | 0 | 0 | 0 | 0 | 0 | 0 | 0 | 0 | 0 | 0 | 0 | 0 | 0 | 0 | 0 | 0 | 0
COc1ccccc1-c1cc(Nc2cccc(CS(N)(=O)=O)c2)ncn1 (max dose 10000 nM) | 0 | 0 | 0 | 0 | 0 | 0 | 8.51 | 0 | 2.79 | 0 | 2.15 | 0 | 3.49 | 1.01 | 0.0889 | 2.01 | 0
C[C@]12CCCN1CC1=NNC(=O)c3cc(F)cc4[nH]c2c1c34 [Pamiparib (BGB-290)] (max dose 10000 nM) | 0 | 0 | 0.031 | 0 | 0 | 0.0345 | 0.435 | 0 | 0 | 12.4 | 0 | 0 | 0 | 0 | 0 | 0 | 0
NC(=O)Nc1sc(-c2ccc(F)cc2)cc1C(N)=O [TPCA-1] (max dose 10000 nM) | 0.218 | 0.837 | 0 | 0 | 0 | 0.518 | 2.13 | 0 | 0.895 | 0 | 0 | 0 | 0.497 | 3.02 | 0 | 0 | 0
CCCc1ccc(OCC(=O)N(Cc2nc(-c3cccnc3)no2)C(C)C)cc1 [PI-1840] (max dose 10000 nM) | 0 | 0.337 | 0 | 0 | 0 | 0 | 0 | 0 | 0 | 0 | 0 | 0 | 1.22 | 1.18 | 0 | 0 | 0
CN(C)Cc1ccc(-c2nc3cccc4c3n2CCNC4=O)cc1 (max dose 10000 nM) | 7.04 | 0 | 0 | 0 | 1.71 | 0.698 | 0.95 | 1.76 | 2.59 | 0 | 0 | 0.214 | 0.555 | 0.841 | 0 | 0.203 | 0.138
